The data set in a line: general procedure: Fmoc solid-phase peptide synthesis; Wang resin; DIC/HOBT/DMAP (first residue); HBTU/DIPEA (Cy5 coupling). The conditions noted are these: whole synthesis, 1.1 mmol/g.

One purity is given for all peptides; the source may state it once. HELM strings list residues between dots; [ac] is acetyl, [am] amide, other brackets name non-standard units. Where no end group is shown, it is not given here. The star is where a group is joined. FITC = O=C1OC2(c3ccc(O)cc3Oc3cc(O)ccc32)c2ccc(NC(=S)*)cc21

{FITC}-RSPYANS: the “crude HPLC purity” value (scale 0.1 g Wang resin) stood at 90%.

Regarding Cy5-RSPYANS (Cy5 label), the “crude HPLC purity” value (scale 0.1 g Wang resin) was determined as 90%.

With PEPTIDE1{R.S.P.Y.A.N.S}$$$$V2.0, the “crude HPLC purity” value (scale 1 g Wang resin) was 90%.

Values taken from patent EP4725955A1 (Nanjing Anji Biotechnology Co., Ltd., priority 2023, dated 2025).
